Test results reported in patent US4238390A, “Synthesis and biological activity of [D-Thr^2, Δ^3 Pro^5 ]-enkephalinamide” (Hoffmann-La Roche Inc., priority 1979, dated 1980).
Read-outs that look alike come from different tables or passages of the source.

System: 5-HTP Diarrhea
Experiment: Anti-diarrhea activity against 5-HTP diarrhea in CD-1 mice (comparative tests)
Type: in vivo, Male CD-1 mice
Settings: for Anti-Diarrhea ED50 ± S.E.: Sulfate
Method: The anti-diarrhea ED50 values were determined using a computer program "ED50" based on the probit method of D. J. Finney, "Probit Analysis", Cambridge University Press, Cambridge, Great Britain (1971). The average percent inhibition obtained at each dose level of [D-Thr^2, Δ^3 Pro^5 ]-enkephalinamide was used as the response.
Male CD-1 mice were obtained from Charles River, Inc., Wilmington, Massachusetts, and weighted between 18 and 25 grams at the time of use.
All compounds with the exception of 5-HTP were dissolved in sterile 0.9% sodium chloride solution. Distilled water was used as the vehicle for 5-HTP. All compounds were administered to the mice using a constant dosage volume of 0.2 ml/20 gms of body weight.
In the experiment involving naloxone HCl, it or the vehicle were given 5 minutes prior to the administration of β-endorphin.
The amount of diarrhea produced by 5-HTP was determined as follows. Immediately following the administration of 5-HTP, the mice were individually housed in open-bottomed wire cages of a width and length of 8.5 cm and a height of 7.5 cm, resting on preweighed plastic sheets. The mice were removed from the cages 30 minutes after receiving 5-HTP, and any visible urinary discharge present on the plastic sheet was blotted dry. The sheets were then reweighed. The weight increment was considered to represent fecal weight.

CN1CC[C@]23c4c5ccc(O)c4O[C@H]2[C@@H](O)C=C[C@H]3[C@H]1C5.O=S(=O)(O)O [Morphine Sulfate]
inhibition at 0.07 µmol/kg (Mus musculus, 0.07 μmoles/kg iv, read-out: % Inhibition of 5-HTP Diarrhea ± S.E.): 9.4 ± 10% | inhibition at 0.07 µmol/kg (Mus musculus, 0.07 μmoles/kg sc, read-out: % Inhibition of 5-HTP Diarrhea ± S.E.): 0% | inhibition at 0.22 µmol/kg (Mus musculus, 0.22 μmoles/kg sc, read-out: % Inhibition of 5-HTP Diarrhea ± S.E.): 0% | Anti-Diarrhea ED50 ± S.E. (iv, 30 seconds prior to 10 mg/kg 5-HTP ip): 0.46 ± 0.150 µmol/kg | Anti-Diarrhea ED50 ± S.E. (iv, 30 seconds prior to 10 mg/kg 5-HTP ip, listed as morphine sulfate): 0.46 µmol/kg | Anti-Diarrhea ED50 ± S.E. (sc, 1 minute prior to 10 mg/kg 5-HTP ip): 1.45 ± 0.330 µmol/kg | Anti-Diarrhea ED50 ± S.E. (sc, 1 minute prior to 10 mg/kg 5-HTP ip, listed as morphine sulfate): 1.45 µmol/kg
